Measured values as given in the supplement of paper PMC10849652.
The list shows a part of the results.

Amino acid sequences for entries named in this document (tags omitted). A change or cut given only in a name is not applied to a line headed by its entry.
UniProt P14406, whole entry, looked up: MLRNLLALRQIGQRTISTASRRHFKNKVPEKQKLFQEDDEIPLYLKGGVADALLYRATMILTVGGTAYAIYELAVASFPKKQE
UniProt Q99627: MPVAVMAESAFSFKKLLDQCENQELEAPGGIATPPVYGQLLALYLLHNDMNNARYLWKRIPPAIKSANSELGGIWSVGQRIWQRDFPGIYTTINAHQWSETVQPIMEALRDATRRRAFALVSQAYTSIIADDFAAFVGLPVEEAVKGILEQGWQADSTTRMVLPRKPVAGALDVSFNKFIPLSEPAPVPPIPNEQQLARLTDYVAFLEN
UniProt Q8N668, whole entry, looked up: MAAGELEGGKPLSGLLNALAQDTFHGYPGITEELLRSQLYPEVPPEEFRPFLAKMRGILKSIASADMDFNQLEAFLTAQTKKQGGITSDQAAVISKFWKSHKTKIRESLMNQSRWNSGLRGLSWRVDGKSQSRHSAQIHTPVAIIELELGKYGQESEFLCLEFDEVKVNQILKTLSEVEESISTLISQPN
UniProt O75534: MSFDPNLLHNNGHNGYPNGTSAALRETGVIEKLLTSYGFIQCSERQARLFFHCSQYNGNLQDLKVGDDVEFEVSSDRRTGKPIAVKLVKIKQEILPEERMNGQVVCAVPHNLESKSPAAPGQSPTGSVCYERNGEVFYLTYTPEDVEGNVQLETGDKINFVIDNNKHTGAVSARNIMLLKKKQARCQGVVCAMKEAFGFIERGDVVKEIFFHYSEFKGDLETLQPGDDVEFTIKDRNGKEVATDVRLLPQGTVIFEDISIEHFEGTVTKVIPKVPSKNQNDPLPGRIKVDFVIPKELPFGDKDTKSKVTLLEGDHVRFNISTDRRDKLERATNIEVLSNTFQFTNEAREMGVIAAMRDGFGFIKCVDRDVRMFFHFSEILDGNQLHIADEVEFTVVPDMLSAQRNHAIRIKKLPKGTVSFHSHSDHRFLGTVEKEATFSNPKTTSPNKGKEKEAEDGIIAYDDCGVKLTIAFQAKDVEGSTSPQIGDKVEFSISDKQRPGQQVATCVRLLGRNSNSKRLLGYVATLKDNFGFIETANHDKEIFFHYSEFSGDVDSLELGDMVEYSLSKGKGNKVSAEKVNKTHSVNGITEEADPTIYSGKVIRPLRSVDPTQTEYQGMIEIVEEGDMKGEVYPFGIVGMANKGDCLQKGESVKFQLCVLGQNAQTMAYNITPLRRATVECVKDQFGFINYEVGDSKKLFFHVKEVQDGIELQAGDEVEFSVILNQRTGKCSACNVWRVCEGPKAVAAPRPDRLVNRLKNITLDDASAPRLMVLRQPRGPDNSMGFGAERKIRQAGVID
UniProt O75629: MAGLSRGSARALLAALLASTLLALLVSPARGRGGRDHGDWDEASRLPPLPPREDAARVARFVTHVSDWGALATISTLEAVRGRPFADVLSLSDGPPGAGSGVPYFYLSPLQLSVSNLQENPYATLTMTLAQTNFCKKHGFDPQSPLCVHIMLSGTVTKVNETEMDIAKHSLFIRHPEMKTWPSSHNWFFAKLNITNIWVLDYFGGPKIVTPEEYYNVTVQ
UniProt P53621: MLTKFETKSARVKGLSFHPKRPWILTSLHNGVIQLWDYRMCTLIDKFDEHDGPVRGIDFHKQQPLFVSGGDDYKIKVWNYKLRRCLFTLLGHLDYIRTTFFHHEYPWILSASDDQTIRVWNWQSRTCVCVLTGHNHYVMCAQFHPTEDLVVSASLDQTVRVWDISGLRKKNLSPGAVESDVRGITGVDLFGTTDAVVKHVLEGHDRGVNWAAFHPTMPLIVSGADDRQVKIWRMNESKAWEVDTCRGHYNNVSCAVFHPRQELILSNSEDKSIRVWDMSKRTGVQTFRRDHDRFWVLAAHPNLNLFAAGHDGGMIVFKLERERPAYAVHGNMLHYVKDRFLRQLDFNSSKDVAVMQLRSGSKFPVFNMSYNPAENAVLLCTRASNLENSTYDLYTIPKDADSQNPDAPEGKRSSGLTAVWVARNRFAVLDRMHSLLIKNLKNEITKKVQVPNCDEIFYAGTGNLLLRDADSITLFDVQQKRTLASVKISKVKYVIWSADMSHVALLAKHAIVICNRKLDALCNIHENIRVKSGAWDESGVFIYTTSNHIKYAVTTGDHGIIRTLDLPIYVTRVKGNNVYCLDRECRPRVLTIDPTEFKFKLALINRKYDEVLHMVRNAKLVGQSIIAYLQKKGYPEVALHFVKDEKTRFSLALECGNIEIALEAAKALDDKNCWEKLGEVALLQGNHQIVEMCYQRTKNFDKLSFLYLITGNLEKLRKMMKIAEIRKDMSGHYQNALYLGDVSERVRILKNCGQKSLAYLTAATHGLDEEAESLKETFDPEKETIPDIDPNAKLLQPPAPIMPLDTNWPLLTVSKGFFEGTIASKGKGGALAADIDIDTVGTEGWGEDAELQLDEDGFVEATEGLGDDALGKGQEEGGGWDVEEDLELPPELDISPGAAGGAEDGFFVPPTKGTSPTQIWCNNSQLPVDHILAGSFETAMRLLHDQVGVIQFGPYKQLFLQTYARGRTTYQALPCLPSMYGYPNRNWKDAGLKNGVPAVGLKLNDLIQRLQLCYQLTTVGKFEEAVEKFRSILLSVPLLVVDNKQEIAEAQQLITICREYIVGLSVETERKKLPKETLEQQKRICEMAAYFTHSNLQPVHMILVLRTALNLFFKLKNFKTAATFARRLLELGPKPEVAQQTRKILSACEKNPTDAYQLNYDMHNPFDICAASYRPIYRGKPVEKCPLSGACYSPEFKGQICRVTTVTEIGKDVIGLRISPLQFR
UniProt P55060: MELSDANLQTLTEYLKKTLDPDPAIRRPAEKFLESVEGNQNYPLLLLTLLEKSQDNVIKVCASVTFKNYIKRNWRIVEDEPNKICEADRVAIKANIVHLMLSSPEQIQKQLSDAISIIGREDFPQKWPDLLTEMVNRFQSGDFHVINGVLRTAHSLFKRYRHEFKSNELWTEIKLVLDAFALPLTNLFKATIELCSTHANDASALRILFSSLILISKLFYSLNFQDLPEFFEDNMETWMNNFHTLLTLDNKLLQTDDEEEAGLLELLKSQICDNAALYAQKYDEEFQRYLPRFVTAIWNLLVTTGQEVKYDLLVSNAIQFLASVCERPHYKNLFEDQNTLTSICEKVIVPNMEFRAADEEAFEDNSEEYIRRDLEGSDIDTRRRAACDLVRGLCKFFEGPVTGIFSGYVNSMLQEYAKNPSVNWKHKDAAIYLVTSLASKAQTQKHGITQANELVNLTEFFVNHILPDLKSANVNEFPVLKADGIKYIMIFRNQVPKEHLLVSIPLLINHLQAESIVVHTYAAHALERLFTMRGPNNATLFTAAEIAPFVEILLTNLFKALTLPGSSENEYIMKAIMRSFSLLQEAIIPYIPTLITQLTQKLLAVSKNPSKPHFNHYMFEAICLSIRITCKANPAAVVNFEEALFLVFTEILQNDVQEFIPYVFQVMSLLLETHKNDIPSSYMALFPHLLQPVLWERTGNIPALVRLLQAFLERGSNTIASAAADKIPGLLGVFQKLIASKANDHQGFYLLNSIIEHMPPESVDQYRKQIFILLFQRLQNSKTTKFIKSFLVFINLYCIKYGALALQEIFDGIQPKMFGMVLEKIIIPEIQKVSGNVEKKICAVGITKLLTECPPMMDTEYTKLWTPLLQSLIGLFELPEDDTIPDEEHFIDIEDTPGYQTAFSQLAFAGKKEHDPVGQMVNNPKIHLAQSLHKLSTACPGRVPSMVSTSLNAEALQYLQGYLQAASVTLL
UniProt Q9P000, whole entry, looked up: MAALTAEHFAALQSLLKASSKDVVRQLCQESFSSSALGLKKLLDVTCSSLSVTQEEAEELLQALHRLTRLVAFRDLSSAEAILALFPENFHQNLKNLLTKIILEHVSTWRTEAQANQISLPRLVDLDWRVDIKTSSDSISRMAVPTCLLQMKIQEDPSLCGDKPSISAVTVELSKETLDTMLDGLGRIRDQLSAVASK
UniProt Q8IUI8: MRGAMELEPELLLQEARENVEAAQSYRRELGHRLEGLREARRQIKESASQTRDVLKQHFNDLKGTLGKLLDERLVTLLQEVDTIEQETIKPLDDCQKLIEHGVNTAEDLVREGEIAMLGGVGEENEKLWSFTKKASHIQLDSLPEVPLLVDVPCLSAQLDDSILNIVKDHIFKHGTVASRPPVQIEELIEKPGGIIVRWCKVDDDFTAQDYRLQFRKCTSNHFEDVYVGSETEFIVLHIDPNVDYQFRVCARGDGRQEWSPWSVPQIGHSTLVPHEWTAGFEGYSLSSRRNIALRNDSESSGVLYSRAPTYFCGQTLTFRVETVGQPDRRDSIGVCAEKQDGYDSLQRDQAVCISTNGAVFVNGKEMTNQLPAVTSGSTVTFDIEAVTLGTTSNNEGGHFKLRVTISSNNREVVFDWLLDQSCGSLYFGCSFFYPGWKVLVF
UniProt Q9H9Q2: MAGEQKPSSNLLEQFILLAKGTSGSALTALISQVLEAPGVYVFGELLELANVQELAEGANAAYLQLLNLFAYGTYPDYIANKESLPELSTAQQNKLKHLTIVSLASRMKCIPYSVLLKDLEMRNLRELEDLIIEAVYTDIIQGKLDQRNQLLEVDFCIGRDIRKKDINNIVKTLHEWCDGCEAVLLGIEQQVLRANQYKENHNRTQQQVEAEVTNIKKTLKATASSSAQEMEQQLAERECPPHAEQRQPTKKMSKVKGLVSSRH
UniProt P23786: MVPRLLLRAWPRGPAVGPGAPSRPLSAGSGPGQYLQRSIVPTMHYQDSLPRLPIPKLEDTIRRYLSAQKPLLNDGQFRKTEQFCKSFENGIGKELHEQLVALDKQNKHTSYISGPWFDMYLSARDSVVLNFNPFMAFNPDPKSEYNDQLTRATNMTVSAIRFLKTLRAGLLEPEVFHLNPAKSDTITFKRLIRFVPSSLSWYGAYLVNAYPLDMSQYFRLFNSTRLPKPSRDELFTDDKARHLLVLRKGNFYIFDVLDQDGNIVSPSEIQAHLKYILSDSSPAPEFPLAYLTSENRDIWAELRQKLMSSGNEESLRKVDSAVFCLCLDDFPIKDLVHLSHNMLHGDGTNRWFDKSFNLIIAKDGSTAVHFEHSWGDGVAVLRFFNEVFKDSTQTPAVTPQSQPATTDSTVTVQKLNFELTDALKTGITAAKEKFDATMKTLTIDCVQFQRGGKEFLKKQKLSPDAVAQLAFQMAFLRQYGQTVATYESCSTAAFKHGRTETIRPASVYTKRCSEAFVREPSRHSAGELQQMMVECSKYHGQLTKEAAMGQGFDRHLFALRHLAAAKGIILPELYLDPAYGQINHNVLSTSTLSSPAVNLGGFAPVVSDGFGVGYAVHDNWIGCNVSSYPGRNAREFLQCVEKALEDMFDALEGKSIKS
UniProt Q8N684: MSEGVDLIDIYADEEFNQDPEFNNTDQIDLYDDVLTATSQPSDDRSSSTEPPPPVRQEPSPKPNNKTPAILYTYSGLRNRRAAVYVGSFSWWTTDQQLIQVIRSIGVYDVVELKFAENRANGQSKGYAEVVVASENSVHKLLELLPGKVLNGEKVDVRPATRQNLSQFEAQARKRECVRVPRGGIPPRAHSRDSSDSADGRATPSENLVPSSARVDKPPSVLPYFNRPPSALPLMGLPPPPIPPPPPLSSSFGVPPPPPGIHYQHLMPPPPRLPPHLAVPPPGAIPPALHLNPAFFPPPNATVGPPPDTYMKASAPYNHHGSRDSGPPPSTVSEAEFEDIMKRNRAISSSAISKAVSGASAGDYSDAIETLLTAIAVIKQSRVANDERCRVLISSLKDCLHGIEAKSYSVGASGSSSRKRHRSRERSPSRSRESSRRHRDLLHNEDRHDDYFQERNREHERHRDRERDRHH
UniProt O75131: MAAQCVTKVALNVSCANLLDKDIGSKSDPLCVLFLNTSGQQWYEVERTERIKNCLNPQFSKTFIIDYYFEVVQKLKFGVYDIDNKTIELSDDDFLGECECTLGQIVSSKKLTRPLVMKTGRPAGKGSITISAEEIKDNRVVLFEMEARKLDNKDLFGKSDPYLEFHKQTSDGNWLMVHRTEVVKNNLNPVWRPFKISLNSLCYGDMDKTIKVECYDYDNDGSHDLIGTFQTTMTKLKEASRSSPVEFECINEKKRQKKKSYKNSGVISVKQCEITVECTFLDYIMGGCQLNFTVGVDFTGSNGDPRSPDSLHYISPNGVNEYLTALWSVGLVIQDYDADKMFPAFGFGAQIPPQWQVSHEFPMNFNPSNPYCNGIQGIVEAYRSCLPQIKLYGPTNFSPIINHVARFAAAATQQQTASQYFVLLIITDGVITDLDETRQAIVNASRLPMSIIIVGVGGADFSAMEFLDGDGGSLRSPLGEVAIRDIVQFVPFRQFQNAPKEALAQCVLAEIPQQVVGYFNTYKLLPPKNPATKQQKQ
UniProt Q92905, whole entry, looked up: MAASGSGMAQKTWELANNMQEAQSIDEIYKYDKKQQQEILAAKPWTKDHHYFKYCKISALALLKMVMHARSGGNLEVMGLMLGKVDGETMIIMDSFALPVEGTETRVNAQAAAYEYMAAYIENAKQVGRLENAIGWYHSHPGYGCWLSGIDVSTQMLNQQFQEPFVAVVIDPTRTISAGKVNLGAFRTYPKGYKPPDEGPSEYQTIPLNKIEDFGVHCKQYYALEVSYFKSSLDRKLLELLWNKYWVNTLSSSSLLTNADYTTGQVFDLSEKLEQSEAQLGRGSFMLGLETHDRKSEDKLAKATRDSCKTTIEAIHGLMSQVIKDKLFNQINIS

Assays:
Assay in all cases: log2 fold change, soluble protein after heating vs DMSO (PISA); higher = thermal stabilisation; K562 cells, 10 uM, 30 min; active = over 0.2 and 3.5 SD of the protein, either way, in both replicates (recomputed)
[1] = compound: CC1=C(C=C(C=C1)NC(=O)C2=CC(=CC=C2)C(C)(C)C#N)NC3=CC4=C(C=C3)N=CN(C4=O)C
In short: (§1)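 K562 cells at 2×10^6 cells/mL were exposed to 10 μM compound for 30 min, then aliquots were heated for 3 min across 48°C-58°C, pooled, and extracted in PBS containing 0.5% NP-40 at 4°C. The supernatant after 21,000xg for 90 min was taken as soluble protein and measured by TMTpro 16plex LC-MS/MS with channel sums equalised. Thermal stability is reported relative to control samples, with values from duplicates. Fold changes are given on a log2 scale.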

[2] = compound: CC1=C(C=C(C=C1)NC(=O)C2=CC(=CC=C2)N(C)C)NC(=O)C3=CC=C(C=C3)O
In short: as §1

[3] = compound: CC1=CC=C(C=C1)SC2=C3C=C(SC3=CN=C2)C(=O)N
In short: as §1

[4] = compound: CC1=NC(=CC=C1)C2=C(N=C(N2)C(C)(C)C)C3=CC4=NC=CN=C4C=C3
In short: as §1

Nexturastat A = compound: CCCCN(Cc1ccc(C(=O)NO)cc1)C(=O)Nc1ccccc1 [Nexturastat A]
In short: as §1

vemurafenib = compound: CCCS(=O)(=O)Nc1ccc(F)c(C(=O)c2c[nH]c3ncc(-c4ccc(Cl)cc4)cc23)c1F [vemurafenib]
In short: as §1

[5] = compound: CCCS(=O)(=O)Nc1ccc(F)c(C(=O)c2c[nH]c3ncc(Cl)cc23)c1F
In short: as §1

[6] = compound: CCCc1cc(C)[nH]c(=O)c1CNC(=O)c1cc(-c2ccnc(N3CCN(C)CC3)c2)cc2c1cnn2C(C)C
In short: as §1

givinostat = compound: CCN(CC)Cc1ccc2cc(COC(=O)Nc3ccc(C(=O)NO)cc3)ccc2c1 [givinostat]
In short: as §1

barasertib = compound: CCN(CCCOc1ccc2c(Nc3cc(CC(=O)Nc4cccc(F)c4)[nH]n3)ncnc2c1)CCOP(=O)(O)O [barasertib]
In short: as §1

| Target | log2 fold change [1] | log2 fold change [2] | log2 fold change [3] | log2 fold change [4] | log2 fold change (Nexturastat A) | log2 fold change (vemurafenib) | log2 fold change [5] | log2 fold change [6] | log2 fold change (givinostat) | log2 fold change (barasertib) |
| --- | --- | --- | --- | --- | --- | --- | --- | --- | --- | --- |
| COX7A2 (UniProt P14406) | inactive: -0.039 | inactive: -0.052 | inactive: 0.004 | inactive: 0.006 | inactive: -0.252 | inactive: -0.09 | inactive: -0.039 | inactive: -0.053 | inactive: 0.018 | inactive: 0.04 |
| COPS8 (UniProt Q99627) | inactive: 0.031 | inactive: -0.04 | inactive: 0 | inactive: -0.09 | inactive: 0.126 | inactive: -0.003 | inactive: -0.031 | inactive: -0.056 | inactive: 0.049 | inactive: 0.009 |
| COPS3 (UniProt Q9UNS2) | inactive: -0.008 | inactive: -0.013 | inactive: 0.009 | inactive: 0.034 | inactive: -0.02 | inactive: 0.004 | inactive: 0.011 | inactive: -0.044 | inactive: -0.056 | inactive: 0.016 |
| COMMD1 (UniProt Q8N668) | inactive: 0.037 | inactive: -0.064 | inactive: -0.048 | inactive: 0.056 | inactive: 0.011 | inactive: -0.038 | inactive: 0.097 | inactive: 0.056 | inactive: 0.122 | inactive: 0.057 |
| CSDE1 isoform 4 (UniProt O75534) | inactive: -0.022 | inactive: -0.025 | inactive: 0.019 | inactive: -0.054 | inactive: 0.202 | inactive: 0.043 | inactive: 0.058 | inactive: 0.155 | inactive: 0.123 | inactive: 0.066 |
| CRYZL1 (UniProt O95825) | inactive: 0.024 | inactive: 0.029 | inactive: -0.041 | inactive: 0.016 | inactive: -0.066 | inactive: -0.024 | inactive: -0.002 | inactive: -0.022 | inactive: -0.003 | inactive: -0.004 |
| COX18 (UniProt Q8N8Q8) | inactive: 0 | inactive: -0.019 | inactive: 0.103 | inactive: -0.022 | inactive: 0.047 | inactive: 0.069 | inactive: -0.046 | inactive: -0.004 | inactive: 0.029 | inactive: 0.032 |
| CSNK1A1L (UniProt Q8N752) | inactive: 0.031 | inactive: 0.025 | inactive: -0.019 | inactive: 0.031 | inactive: 0.004 | inactive: -0.003 | inactive: 0.052 | inactive: 0.078 | inactive: -0.017 | inactive: -0.044 |
| COMMD7 (UniProt Q86VX2) | inactive: -0.045 | inactive: 0.009 | inactive: -0.04 | inactive: -0.043 | inactive: -0.008 | inactive: 0.035 | inactive: 0.029 | inactive: -0.031 | inactive: 0.006 | inactive: -0.021 |
| COTL1 (UniProt Q14019) | inactive: 0.031 | inactive: 0.005 | inactive: 0.038 | inactive: 0.05 | inactive: -0.043 | inactive: 0.033 | inactive: 0.057 | inactive: -0.05 | inactive: -0.006 | inactive: 0.024 |
| CREG1 (UniProt O75629) | inactive: -0.182 | inactive: 0.049 | inactive: 0.056 | inactive: 0.008 | inactive: 0.097 | inactive: -0.011 | inactive: 0.063 | inactive: -0.013 | inactive: 0 | inactive: -0.079 |
| COQ9 (UniProt O75208) | inactive: 0.016 | inactive: 0.045 | inactive: 0.054 | inactive: 0.064 | active: -0.266 | inactive: 0.041 | inactive: -0.004 | inactive: -0.006 | inactive: -0.006 | inactive: 0.046 |
| COLGALT1 (UniProt Q8NBJ5) | inactive: 0.007 | inactive: 0.018 | inactive: -0.044 | inactive: -0.022 | inactive: -0.043 | inactive: -0.035 | inactive: -0.046 | inactive: 0.044 | inactive: 0.013 | inactive: -0.026 |
| COQ3 (UniProt Q9NZJ6) | inactive: 0.03 | inactive: -0.048 | inactive: -0.004 | inactive: 0.008 | inactive: -0.074 | inactive: 0.069 | inactive: 0.026 | inactive: 0 | inactive: 0.086 | inactive: -0.032 |
| CRK (UniProt P46108) | active: -0.814 | inactive: -0.019 | inactive: 0.015 | inactive: 0.091 | inactive: -0.006 | inactive: 0.048 | inactive: 0.009 | inactive: -0.008 | inactive: 0.002 | inactive: 0.046 |
| COPA isoform 2 (UniProt P53621) | inactive: -0.004 | inactive: -0.03 | inactive: 0.007 | inactive: 0.004 | inactive: -0.03 | inactive: 0.014 | inactive: 0.047 | inactive: 0.013 | inactive: -0.029 | inactive: 0.01 |
| CROCC (UniProt Q5TZA2) | inactive: 0.008 | inactive: 0.043 | inactive: 0.005 | inactive: -0.01 | inactive: -0.165 | inactive: -0.009 | inactive: -0.009 | inactive: 0.016 | inactive: 0.042 | inactive: 0.046 |
| CSE1L (UniProt P55060) | inactive: 0.021 | inactive: -0.006 | inactive: 0.068 | inactive: 0.083 | inactive: -0.068 | inactive: 0.029 | inactive: 0.063 | inactive: 0.009 | inactive: 0.004 | inactive: 0.042 |
| COMMD9 (UniProt Q9P000) | inactive: -0.013 | inactive: -0.082 | inactive: -0.044 | inactive: 0.13 | inactive: -0.15 | inactive: 0.124 | inactive: -0.295 | inactive: -0.014 | inactive: 0.007 | inactive: 0.054 |
| CRLF3 (UniProt Q8IUI8) | inactive: 0.05 | inactive: -0.015 | inactive: 0.03 | inactive: -0.071 | inactive: 0.005 | inactive: 0.057 | inactive: 0.044 | inactive: 0.025 | inactive: 0.065 | inactive: 0.073 |
| CPQ (UniProt Q9Y646) | inactive: 0.001 | inactive: 0.025 | inactive: -0.005 | inactive: -0.005 | inactive: -0.016 | inactive: 0.043 | inactive: 0.006 | inactive: 0.024 | inactive: 0.011 | inactive: -0.002 |
| COPS7B (UniProt Q9H9Q2) | inactive: -0.006 | inactive: -0.037 | inactive: 0.018 | inactive: 0.042 | inactive: 0.068 | inactive: 0.021 | inactive: 0.032 | inactive: 0.003 | inactive: -0.023 | inactive: 0.041 |
| CREBBP (UniProt Q92793) | inactive: 0.007 | inactive: -0.015 | inactive: 0.002 | inactive: 0.016 | inactive: -0.044 | inactive: 0.022 | inactive: 0.022 | inactive: -0.01 | inactive: -0.058 | inactive: 0.023 |
| COMMD5 (UniProt Q9GZQ3) | inactive: 0.04 | inactive: -0.07 | inactive: 0.014 | inactive: 0.043 | inactive: -0.148 | inactive: 0.044 | inactive: -0.004 | inactive: -0.007 | inactive: -0.036 | inactive: 0.021 |
| CPS1 isoform 3 (UniProt P31327) | inactive: -0.096 | inactive: -0.022 | inactive: 0.126 | inactive: 0.192 | inactive: -0.012 | inactive: 0.247 | inactive: 0 | inactive: -0.097 | inactive: 0.076 | inactive: 0.051 |
| CPT2 (UniProt P23786) | inactive: 0.313 | inactive: -0.105 | inactive: 0.035 | inactive: 0.019 | inactive: -0.417 | inactive: 0.042 | inactive: 0.007 | inactive: 0.016 | inactive: 0.474 | inactive: 0.013 |
| CRELD1 isoform 2 (UniProt Q96HD1) | inactive: -0.069 | inactive: -0.124 | inactive: 0.02 | inactive: 0.065 | inactive: -0.104 | inactive: -0.272 | inactive: -0.087 | inactive: -0.26 | inactive: -0.057 | inactive: 0.169 |
| CPSF7 isoform 3 (UniProt Q8N684) | inactive: 0.015 | inactive: 0.001 | inactive: 0.014 | inactive: 0.012 | inactive: -0.003 | inactive: 0.018 | inactive: 0.007 | inactive: -0.016 | inactive: 0.01 | inactive: -0.044 |
| CPNE3 (UniProt O75131) | inactive: 0.024 | inactive: -0.048 | inactive: -0.036 | inactive: 0.002 | inactive: -0.026 | inactive: -0.022 | inactive: -0.014 | inactive: -0.012 | inactive: -0.027 | inactive: 0.036 |
| COPS5 (UniProt Q92905) | inactive: 0.029 | inactive: 0.003 | inactive: 0.028 | inactive: 0.034 | inactive: -0.117 | inactive: 0.049 | inactive: 0.098 | inactive: -0.041 | inactive: -0.003 | inactive: 0.011 |

For reference, some entries already given.

| Target | log2 fold change [1] | log2 fold change [2] | log2 fold change [3] | log2 fold change [4] | log2 fold change (Nexturastat A) | log2 fold change (vemurafenib) | log2 fold change [5] | log2 fold change [6] | log2 fold change (givinostat) | log2 fold change (barasertib) |
| --- | --- | --- | --- | --- | --- | --- | --- | --- | --- | --- |
| CPT2 (UniProt P23786) | inactive: 0.313 | inactive: -0.105 | inactive: 0.035 | inactive: 0.019 | inactive: -0.417 | inactive: 0.042 | inactive: 0.007 | inactive: 0.016 | inactive: 0.474 | inactive: 0.013 |
| CRELD1 isoform 2 (UniProt Q96HD1) | inactive: -0.069 | inactive: -0.124 | inactive: 0.02 | inactive: 0.065 | inactive: -0.104 | inactive: -0.272 | inactive: -0.087 | inactive: -0.26 | inactive: -0.057 | inactive: 0.169 |
